Laboratory results taken from patent US20210087163A1, “PHENOXY THIOPHENE SULFONAMIDES AND OTHER COMPOUNDS FOR USE AS INHIBITORS OF BACTERIAL GLUCURONIDASE” (NORTH CAROLINA CENTRAL UNIVERSITY, priority 2010, published 2021).
For at least one compound, name, drawing or mass did not settle the structure.

Protein sequences, listed by entry. Tags and fused reporters are not part of them. Lines headed by an entry give the natural chain unless they say otherwise; changes in a name come on top.
UniProt P05804: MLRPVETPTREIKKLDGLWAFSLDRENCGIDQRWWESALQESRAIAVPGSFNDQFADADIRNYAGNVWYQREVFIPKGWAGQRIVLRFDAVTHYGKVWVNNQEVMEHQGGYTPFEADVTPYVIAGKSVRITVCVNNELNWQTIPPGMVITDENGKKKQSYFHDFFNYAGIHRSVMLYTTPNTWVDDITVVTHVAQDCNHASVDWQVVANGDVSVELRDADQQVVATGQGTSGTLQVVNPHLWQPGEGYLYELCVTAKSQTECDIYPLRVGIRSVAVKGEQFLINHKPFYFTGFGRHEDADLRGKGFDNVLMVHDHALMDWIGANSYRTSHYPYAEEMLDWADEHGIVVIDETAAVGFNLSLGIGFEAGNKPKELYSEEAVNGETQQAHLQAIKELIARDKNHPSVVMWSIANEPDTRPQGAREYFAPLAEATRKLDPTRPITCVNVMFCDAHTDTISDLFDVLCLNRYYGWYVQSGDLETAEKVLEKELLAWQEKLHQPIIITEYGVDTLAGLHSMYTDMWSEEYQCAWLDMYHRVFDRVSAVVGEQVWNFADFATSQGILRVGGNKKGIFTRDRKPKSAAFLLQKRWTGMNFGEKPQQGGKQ

Target: E. coli GUS (Escherichia coli, UniProt P05804)
Test: GUS enzyme assay, manual version (purified E. coli GUS, 4MUG)
Type: biochemical
Settings: methyl group on the piperazine ring
Procedure: The semi-automated GUS high throughput enzyme assay was performed as previously described and was used to screen the Prestwick Chemical Collection. The follow-up studies were performed manually in a similar manner with the exception of plate type and volumes, as briefly outlined here. Compound stock solutions were made in 100% DMSO. […] Final concentrations in the assembled assay were 50 mM HEPES. pH 7.4, 0.01% Triton X-100, 1% DMSO. […] The enzyme reaction was allowed to proceed for 20 minutes at 23° C., and was terminated by the addition of 40 μl of a 1M sodium carbonate solution. […] Fluorescence data, expressed in relative fluorescence units (RFU), were normalized to DMSO (100% activity) and “no enzyme” (0% activity) controls as maximum and minimum responses, respectively. The Bovine taurus GUS enzyme assay was performed in an identical manner except Bovine taurus GUS enzyme (1 nM) was used instead of bacterial GUS. The IC50 values and Hill slopes were calculated from concentration response data using GraphPad Prism software (GraphPad Software Inc., La Jolla, Calif.) employing either four-parameter or a three parameter (fixed bottom) curve fit.

Question: `CN1CCN(C2=Nc3ccccc3Oc3ccc(Cl)cc32)CC1` [Loxaspine, loxapine] was tested. Which “loss in potency compared with amoxapine in the GUS enzyme assay” value did it give?
Answer: > 250 fold
